Values from PubChem BioAssay AID1224826 (NIAID, 2016)
The whole screen tested about 17,000 reagents; this is a part drawn at random. About 1,110 of them (6.6%) count as active. 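Active means lowered or raised reporter signal; replicate intensities are raw and not normalised per plate.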 Not all columns of the deposit are shown.

Screen: 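Knock-downs that raise or lower Tnf reporter signal after endotoxin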 (primary screen)
Cell system: RAW264.7 G9 macrophages from mouse bearing reporters for p65 (GFP) and the Tnf promoter (mCherry)
Knock-down reagent: siRNA pool against mouse genes, 100 nM
Time to read-out: 16 h of LPS stimulation, after 2 days of siRNA transfection
Conditions: bacterial lipopolysaccharide (Salmonella minnesota R595), 10 ng/ml
Detection: 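Imaged Tnf reporter mCherry in nuclei, minus background, normalised per plate to the median and expressed as robust z-scores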
Reading the numbers: Tnf reporter robust z-score: higher = stronger Tnf promoter reporter signal after LPS
Hit rule: 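Called active when robust z-score is at most -1.3, matching the median of the Tlr4 knock-down control, or over 3; control wells and wells with under 50 cells never active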
Meaning of the calls: active = Tnf reporter clearly lowered or raised; inactive = no clear change in Tnf reporter

| target | Tnf reporter robust z-score | fewer than 50 cells in well | outcome |
| --- | --- | --- | --- |
| 9130230L23Rik (RIKEN cDNA 9130230L23 gene) | -0.54 | enough cells in well | inactive |
| Spata7 (spermatogenesis associated 7) | -1 | enough cells in well | inactive |
| Sart3 (squamous cell carcinoma antigen recognized by T cells 3) | -1.32 | enough cells in well | active |
| Rnf24 (ring finger protein 24) | 2.15 | enough cells in well | inactive |
| Sesn1 (sestrin 1) | -0.3 | enough cells in well | inactive |
| Cd2bp2 (CD2 cytoplasmic tail binding protein 2) | 1.43 | enough cells in well | inactive |
| F2r (coagulation factor II thrombin receptor) | -0.2 | enough cells in well | inactive |
| Hoxc6 (homeobox C6) | -0.75 | enough cells in well | inactive |
| Chgb (chromogranin B) | 0.16 | enough cells in well | inactive |
| Nnmt (nicotinamide N-methyltransferase) | -0.18 | enough cells in well | inactive |
| Ess2 (ess-2 splicing factor) | -0.1 | enough cells in well | inactive |
| Smco1 (single-pass membrane protein with coiled-coil domains 1) | -0.1 | enough cells in well | inactive |
| Dscaml1 (DS cell adhesion molecule like 1) | – | fewer than 50 cells per well; well left out of calls | inactive |
| Fgf4 (fibroblast growth factor 4) | -0.53 | enough cells in well | inactive |
| Meox2 (mesenchyme homeobox 2) | -0.41 | enough cells in well | inactive |
| Atp5me (ATP synthase membrane subunit e) | 0.2 | enough cells in well | inactive |
| Pde1a (phosphodiesterase 1A, calmodulin-dependent) | 0.54 | enough cells in well | inactive |
| Cfl2 (cofilin 2, muscle) | -1.39 | enough cells in well | active |
| Slc66a1 | 0.3 | enough cells in well | inactive |
| Rasgrp4 (RAS guanyl releasing protein 4) | 0.08 | enough cells in well | inactive |
| Kcnk18 (potassium channel, subfamily K, member 18) | 2.87 | enough cells in well | inactive |
| Hdgfl2 (HDGF like 2) | 0.92 | enough cells in well | inactive |
| Mtss1 (MTSS I-BAR domain containing 1) | -0.82 | enough cells in well | inactive |
| Btbd35f1 (BTB domain containing 35, family member 1) | 1.13 | enough cells in well | inactive |
| Bend3 (BEN domain containing 3) | -0.01 | enough cells in well | inactive |
| Spata21 (spermatogenesis associated 21) | – | fewer than 50 cells per well; well left out of calls | inactive |
| Cdkn3 (cyclin dependent kinase inhibitor 3) | 1.19 | enough cells in well | inactive |
| Fkbp9 (FK506 binding protein 9) | 1.53 | enough cells in well | inactive |
| Lrrc19 (leucine rich repeat containing 19) | 3.76 | enough cells in well | active |
| Chrna9 (cholinergic receptor, nicotinic, alpha polypeptide 9) | -0.82 | enough cells in well | inactive |
| Gspt1 (G1 to S phase transition 1) | -1.73 | enough cells in well | active |
| Angptl2 (angiopoietin-like 2) | 1.63 | enough cells in well | inactive |
| Zswim9 (zinc finger SWIM-type containing 9) | 0.14 | enough cells in well | inactive |
| Rrbp1 (ribosome binding protein 1) | -1.41 | enough cells in well | active |
| Rab9 (RAB9, member RAS oncogene family) | 0.02 | enough cells in well | inactive |
| Mapk9 (mitogen-activated protein kinase 9) | – | fewer than 50 cells per well; well left out of calls | inactive |
| Gpbar1 (G protein-coupled bile acid receptor 1) | 0.34 | enough cells in well | inactive |
| Or8d1 (olfactory receptor family 8 subfamily D member 1) | -0.33 | enough cells in well | inactive |
| Rcn1 (reticulocalbin 1) | 2.83 | enough cells in well | inactive |
| Nifk (nucleolar protein interacting with the FHA domain of MKI67) | 1.15 | enough cells in well | inactive |
| Or2d4 (olfactory receptor family 2 subfamily D member 4) | 2.7 | enough cells in well | inactive |
| Hirip3 (HIRA interacting protein 3) | 0.33 | enough cells in well | inactive |
| Prl4a1 (prolactin family 4, subfamily a, member 1) | 1.64 | enough cells in well | inactive |
| Fbxw11 (F-box and WD-40 domain protein 11) | -1.46 | enough cells in well | active |
| Skor1 (SKI family transcriptional corepressor 1) | 1.21 | enough cells in well | inactive |
| AU040320 (expressed sequence AU040320) | -0.88 | enough cells in well | inactive |
| Tmem184c (transmembrane protein 184C) | -1.09 | enough cells in well | inactive |
| Ints2 (integrator complex subunit 2) | -0.46 | enough cells in well | inactive |
| Fam3c (FAM3 metabolism regulating signaling molecule C) | -0.76 | enough cells in well | inactive |
| Gria1 (glutamate receptor, ionotropic, AMPA1 (alpha 1)) | 0.14 | enough cells in well | inactive |
| Vmn1r178 (vomeronasal 1 receptor 178) | -0.11 | enough cells in well | inactive |
| Or5p54 (olfactory receptor family 5 subfamily P member 54) | – | fewer than 50 cells per well; well left out of calls | inactive |
| Kiss1r (KISS1 receptor) | -0.71 | enough cells in well | inactive |
| Ppig (peptidyl-prolyl isomerase G (cyclophilin G)) | 0.05 | enough cells in well | inactive |
| Rnf141 (ring finger protein 141) | -0.18 | enough cells in well | inactive |
| Rnf144a (ring finger protein 144A) | -0.45 | enough cells in well | inactive |
| Or8k30 (olfactory receptor family 8 subfamily K member 30) | -1.69 | enough cells in well | active |
| Rffl (ring finger and FYVE like domain containing protein) | -1.95 | enough cells in well | active |

An excerpt from above, reduced to “fewer than 50 cells in well”:
Cd2bp2 (CD2 cytoplasmic tail binding protein 2)	enough cells in well
F2r (coagulation factor II thrombin receptor)	enough cells in well
Hoxc6 (homeobox C6)	enough cells in well
Chgb (chromogranin B)	enough cells in well
